The values below come from publication PMC8579465.

Chains of the proteins cited; added tags and fusions are not shown.
UniProt Q92793: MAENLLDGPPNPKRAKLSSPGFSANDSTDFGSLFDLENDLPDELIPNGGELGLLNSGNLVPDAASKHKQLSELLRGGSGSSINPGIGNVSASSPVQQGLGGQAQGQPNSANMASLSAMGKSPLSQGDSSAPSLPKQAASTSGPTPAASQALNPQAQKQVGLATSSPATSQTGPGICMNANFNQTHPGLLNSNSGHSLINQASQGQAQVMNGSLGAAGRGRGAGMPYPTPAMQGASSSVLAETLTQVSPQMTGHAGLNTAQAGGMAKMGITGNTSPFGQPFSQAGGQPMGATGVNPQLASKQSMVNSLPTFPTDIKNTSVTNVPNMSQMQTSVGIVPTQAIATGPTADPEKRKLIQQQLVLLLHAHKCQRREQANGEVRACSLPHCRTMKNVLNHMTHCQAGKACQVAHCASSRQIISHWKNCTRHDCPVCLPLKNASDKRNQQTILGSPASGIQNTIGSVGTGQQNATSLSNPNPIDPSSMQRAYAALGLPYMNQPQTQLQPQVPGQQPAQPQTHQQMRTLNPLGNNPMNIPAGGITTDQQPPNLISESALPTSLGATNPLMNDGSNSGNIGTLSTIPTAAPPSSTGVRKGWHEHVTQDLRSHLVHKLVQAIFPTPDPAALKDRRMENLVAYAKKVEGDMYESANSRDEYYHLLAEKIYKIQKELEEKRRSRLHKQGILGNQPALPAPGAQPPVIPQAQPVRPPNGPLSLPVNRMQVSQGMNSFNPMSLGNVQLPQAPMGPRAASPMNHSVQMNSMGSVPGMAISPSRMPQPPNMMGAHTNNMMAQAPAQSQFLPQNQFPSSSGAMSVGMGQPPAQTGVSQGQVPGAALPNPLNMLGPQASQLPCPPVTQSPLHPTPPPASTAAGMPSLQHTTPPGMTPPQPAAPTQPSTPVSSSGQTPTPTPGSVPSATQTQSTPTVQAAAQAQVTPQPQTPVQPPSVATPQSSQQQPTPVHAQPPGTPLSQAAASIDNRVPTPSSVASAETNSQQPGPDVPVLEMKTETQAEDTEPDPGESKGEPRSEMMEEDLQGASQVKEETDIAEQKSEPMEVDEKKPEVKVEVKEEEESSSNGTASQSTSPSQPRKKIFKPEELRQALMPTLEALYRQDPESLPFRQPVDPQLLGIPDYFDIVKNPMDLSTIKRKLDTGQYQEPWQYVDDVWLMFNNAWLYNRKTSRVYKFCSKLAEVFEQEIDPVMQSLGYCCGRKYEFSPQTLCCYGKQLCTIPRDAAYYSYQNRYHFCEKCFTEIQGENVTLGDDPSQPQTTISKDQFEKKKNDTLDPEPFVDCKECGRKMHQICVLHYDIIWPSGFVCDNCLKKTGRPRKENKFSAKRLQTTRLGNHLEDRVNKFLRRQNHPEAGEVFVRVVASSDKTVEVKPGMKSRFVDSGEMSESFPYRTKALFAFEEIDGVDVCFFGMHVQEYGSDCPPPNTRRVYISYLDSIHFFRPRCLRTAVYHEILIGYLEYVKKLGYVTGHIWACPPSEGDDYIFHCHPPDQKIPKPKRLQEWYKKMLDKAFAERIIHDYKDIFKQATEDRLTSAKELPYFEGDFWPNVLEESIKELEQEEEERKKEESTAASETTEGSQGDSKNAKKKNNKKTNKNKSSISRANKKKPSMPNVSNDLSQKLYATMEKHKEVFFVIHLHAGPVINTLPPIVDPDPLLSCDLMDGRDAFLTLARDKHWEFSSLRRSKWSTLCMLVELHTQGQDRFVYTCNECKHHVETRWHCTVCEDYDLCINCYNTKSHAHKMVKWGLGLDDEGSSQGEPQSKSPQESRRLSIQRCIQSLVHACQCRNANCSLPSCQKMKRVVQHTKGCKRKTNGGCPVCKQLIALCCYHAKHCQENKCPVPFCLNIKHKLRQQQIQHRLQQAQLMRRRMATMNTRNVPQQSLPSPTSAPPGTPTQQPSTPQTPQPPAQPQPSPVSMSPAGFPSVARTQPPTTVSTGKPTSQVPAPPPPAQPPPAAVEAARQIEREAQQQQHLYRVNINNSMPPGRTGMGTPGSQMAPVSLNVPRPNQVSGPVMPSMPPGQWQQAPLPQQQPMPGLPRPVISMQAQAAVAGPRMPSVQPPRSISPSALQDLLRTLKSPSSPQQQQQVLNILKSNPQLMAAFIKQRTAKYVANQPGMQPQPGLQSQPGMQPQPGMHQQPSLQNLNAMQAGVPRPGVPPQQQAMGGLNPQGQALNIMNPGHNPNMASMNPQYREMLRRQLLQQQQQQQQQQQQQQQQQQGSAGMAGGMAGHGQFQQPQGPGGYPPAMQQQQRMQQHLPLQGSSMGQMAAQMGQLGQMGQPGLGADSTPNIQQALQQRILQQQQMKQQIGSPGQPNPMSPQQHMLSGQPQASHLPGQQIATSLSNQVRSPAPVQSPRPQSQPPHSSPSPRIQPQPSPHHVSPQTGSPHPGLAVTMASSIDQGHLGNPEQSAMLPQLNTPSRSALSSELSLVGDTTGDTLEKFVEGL
UniProt P05412: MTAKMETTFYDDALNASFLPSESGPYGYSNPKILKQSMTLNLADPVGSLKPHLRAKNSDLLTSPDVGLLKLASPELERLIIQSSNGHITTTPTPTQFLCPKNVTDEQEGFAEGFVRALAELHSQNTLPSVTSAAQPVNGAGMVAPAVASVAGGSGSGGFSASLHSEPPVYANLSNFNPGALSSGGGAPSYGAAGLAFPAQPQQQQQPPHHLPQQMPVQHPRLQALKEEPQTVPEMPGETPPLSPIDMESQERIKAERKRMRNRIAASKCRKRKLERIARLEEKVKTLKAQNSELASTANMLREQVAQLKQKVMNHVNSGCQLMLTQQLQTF

In assay [1] the target is T1, Ets-1 (human (endogenous in HUVECs)) (UniProt P14921).
T1 sequence: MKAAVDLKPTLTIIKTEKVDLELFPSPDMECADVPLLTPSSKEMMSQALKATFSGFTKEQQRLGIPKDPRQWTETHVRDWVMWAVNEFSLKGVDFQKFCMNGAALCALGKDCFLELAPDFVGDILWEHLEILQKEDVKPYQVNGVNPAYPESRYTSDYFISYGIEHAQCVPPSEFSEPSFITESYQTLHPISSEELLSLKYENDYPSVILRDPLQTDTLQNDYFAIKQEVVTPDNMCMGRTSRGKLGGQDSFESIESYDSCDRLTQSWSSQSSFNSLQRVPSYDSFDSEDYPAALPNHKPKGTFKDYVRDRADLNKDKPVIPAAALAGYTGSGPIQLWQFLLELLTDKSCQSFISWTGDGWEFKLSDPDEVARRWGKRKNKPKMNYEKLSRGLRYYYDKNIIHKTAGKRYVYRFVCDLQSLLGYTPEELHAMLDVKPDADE
Description: co-IP; cells treated with ox-LDL, lysed in RIPA; anti-Ets-1 or anti-CBP monoclonal antibody on protein A/G magnetic beads, 4 °C overnight; precipitates read by Western blot.

In assay [2] the target is CBP (human (endogenous in HUVECs)) (UniProt Q92793). Described as above.

No constants are given. Whether binding was seen depends on the method and setting. In cells and extracts the contact can be indirect. Some results given as binding are weak or reduced against the parent protein; the word gives no strength.

Regarding c-jun (from UniProt P05412 1-331), the binding entry in assay [1] and in assay [2] was “binds” in each case.

As for CBP (from UniProt Q92793 1-2442), the binding result in assay [1] is “binds”.
